Results reported in US20060121042A1.
Where a chain is given by its changes, count along the chain named. No constants are given. Whether binding was seen depends on the method and setting. Some results given as binding are weak or reduced against the parent protein; the word gives no strength.

Protein sequences, listed by entry. Tags and fused reporters are not part of them. Lines headed by an entry give the natural chain unless they say otherwise; changes in a name come on top. Residues count along the entry.
UniProt P54764: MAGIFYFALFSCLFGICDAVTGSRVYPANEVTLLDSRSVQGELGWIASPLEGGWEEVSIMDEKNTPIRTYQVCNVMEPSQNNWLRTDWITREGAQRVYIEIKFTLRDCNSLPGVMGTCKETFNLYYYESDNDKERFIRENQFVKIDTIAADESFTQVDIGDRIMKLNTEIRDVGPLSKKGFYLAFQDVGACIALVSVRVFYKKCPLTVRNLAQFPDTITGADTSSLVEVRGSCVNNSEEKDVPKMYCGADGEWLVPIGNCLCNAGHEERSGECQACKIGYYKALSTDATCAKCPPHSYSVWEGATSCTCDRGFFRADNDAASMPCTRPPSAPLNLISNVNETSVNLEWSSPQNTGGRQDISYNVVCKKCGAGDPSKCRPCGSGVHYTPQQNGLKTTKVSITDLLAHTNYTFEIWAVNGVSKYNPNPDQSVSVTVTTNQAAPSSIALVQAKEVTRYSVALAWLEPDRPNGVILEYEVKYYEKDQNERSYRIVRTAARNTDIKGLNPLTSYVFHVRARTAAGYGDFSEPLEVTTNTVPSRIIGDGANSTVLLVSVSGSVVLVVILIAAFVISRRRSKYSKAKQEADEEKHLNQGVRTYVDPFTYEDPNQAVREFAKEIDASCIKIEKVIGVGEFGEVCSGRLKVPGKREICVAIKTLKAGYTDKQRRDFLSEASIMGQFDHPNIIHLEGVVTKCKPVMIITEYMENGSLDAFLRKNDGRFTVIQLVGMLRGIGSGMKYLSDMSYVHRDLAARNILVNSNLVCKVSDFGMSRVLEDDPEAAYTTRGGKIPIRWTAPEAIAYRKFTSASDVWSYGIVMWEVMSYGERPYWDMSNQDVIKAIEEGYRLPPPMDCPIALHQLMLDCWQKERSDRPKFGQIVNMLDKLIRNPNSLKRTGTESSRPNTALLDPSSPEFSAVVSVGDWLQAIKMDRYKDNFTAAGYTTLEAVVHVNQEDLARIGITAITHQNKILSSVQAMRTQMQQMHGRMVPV
UniProt Q03145, residues 26-535: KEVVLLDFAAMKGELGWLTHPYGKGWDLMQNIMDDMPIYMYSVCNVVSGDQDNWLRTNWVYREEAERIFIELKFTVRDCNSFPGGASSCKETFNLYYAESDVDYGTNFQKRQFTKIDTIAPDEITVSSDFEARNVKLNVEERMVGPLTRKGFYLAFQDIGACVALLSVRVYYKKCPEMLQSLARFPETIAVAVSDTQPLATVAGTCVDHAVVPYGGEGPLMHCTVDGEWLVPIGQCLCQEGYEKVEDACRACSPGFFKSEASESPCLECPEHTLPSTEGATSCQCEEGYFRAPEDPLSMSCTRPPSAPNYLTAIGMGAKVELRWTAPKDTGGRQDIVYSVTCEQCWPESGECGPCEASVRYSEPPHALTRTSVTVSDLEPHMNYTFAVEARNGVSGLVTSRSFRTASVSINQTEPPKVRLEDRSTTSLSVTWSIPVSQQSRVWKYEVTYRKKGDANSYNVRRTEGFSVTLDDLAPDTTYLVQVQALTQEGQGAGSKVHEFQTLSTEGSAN
UniProt Q61772, residues 28-555: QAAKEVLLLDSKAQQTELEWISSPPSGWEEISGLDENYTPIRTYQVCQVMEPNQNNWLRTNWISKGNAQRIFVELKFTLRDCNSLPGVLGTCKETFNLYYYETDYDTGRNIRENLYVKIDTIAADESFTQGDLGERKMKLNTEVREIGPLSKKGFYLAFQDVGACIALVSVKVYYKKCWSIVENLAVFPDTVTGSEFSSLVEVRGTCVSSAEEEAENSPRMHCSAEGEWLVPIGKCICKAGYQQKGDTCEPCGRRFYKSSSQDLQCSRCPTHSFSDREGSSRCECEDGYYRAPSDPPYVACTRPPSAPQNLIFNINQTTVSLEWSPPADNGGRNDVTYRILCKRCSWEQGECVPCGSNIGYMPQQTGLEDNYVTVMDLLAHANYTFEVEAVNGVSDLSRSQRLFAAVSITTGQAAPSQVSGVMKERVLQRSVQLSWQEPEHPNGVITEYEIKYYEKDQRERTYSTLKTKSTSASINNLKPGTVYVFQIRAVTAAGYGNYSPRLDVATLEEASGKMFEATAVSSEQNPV
UniProt Q03137, residues 20-547: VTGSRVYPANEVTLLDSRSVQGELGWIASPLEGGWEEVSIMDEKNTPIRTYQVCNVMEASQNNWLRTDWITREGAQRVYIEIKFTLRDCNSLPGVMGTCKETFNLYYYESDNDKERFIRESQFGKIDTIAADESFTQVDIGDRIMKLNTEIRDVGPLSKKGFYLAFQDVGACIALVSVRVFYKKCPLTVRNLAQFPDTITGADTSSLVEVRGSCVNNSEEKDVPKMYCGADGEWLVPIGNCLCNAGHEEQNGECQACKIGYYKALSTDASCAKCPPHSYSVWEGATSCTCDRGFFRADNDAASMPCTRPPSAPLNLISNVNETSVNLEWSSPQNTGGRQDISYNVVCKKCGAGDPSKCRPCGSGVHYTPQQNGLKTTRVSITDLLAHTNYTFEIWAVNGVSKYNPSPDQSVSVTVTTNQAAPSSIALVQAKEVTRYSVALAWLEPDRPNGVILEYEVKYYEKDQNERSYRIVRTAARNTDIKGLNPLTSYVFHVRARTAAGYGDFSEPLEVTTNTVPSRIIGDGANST

Key:
[1] = target: human EphA4 (construct not given) (human) (UniProt P54764); assay: capture ELISA, 25 ng/well sheep anti-human Fd
[2] = target: Human EphA4-His fusion protein (human) (UniProt P54764); assay: activity ELISA, Fab periplasmic extract on coated human EphA4-His
[3] = target: Human EphA4-His fusion protein (human) (UniProt P54764); assay: Activity ELISA on coated human EphA4-His, normalised by Fab quantification ELISA
[4] = target: Human EphA4-His fusion protein (human) (UniProt P54764); assay: ELISA, Fab titration on EphA4 (FIG. 7)
murine EphA2 (mouse) [5] = target: murine EphA2 (mouse) (UniProt Q03145); assay: ELISA titration, Fab on immobilized antigen
r murine EphA7 (mouse) [6] = target: r murine EphA7 (mouse) (UniProt Q61772); assay: activity ELISA, Fab on coated antigen
r human EphA1 (human) [7] = target: T1, r human EphA1 (human) (UniProt P21709); assay: activity ELISA, Fab on coated antigen
T1 sequence (receptor-Fc fusion, looked up): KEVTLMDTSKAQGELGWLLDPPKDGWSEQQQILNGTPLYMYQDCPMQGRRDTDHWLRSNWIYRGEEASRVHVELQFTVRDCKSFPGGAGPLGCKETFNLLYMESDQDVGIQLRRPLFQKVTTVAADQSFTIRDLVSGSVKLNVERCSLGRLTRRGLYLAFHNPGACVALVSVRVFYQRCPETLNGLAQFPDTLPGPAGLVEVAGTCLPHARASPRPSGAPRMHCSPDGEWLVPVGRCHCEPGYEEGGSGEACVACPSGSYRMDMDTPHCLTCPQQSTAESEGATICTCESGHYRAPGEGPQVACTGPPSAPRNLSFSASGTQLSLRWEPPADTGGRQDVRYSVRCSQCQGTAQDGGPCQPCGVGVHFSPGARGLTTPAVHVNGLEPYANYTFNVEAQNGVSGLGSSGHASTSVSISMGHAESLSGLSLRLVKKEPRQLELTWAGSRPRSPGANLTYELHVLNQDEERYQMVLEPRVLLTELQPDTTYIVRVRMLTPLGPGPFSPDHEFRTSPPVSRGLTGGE

murine EphA2 (mouse) [8] = target: murine EphA2 (mouse) (UniProt Q03145); assay: activity ELISA, Fab on coated antigen
r murine EphA4 (mouse) [9] = target: r murine EphA4 (mouse) (UniProt Q03137); assay: activity ELISA, Fab on coated antigen
r murine EphA3 (mouse) [10] = target: T2, r murine EphA3 (mouse) (UniProt P29319); assay: activity ELISA, Fab on coated antigen
T2 sequence (receptor-Fc fusion, looked up): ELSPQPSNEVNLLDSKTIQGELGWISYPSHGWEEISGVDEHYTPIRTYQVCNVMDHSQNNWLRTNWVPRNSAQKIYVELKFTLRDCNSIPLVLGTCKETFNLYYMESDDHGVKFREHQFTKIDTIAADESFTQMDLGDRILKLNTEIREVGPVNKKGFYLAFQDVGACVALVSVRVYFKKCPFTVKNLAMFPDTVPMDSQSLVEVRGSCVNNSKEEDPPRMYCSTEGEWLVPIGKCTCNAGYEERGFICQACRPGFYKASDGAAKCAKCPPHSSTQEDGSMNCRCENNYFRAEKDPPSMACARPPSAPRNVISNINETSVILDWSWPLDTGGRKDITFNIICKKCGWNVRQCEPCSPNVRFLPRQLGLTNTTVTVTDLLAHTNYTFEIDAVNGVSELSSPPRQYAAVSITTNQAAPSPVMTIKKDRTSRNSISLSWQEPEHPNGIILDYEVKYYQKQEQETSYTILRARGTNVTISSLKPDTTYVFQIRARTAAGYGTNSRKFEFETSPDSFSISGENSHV

[11] = target: Human EphA4-His fusion protein (human) (UniProt P54764); assay: activity ELISA, Fab on coated antigen
[12] = target: Human EphA4-His fusion protein (human) (UniProt P54764); assay: secondary screen: Activity ELISA on coated human EphA4-His, normalised by Fab quantification ELISA
[13] = target: Human EphA4-His fusion protein (human) (UniProt P54764); assay: BIAcore, IgG immobilized, human EphA4-His as analyte (FIG. 15)
mEphA3 (mouse) = target: T3, mEphA3 (mouse) (UniProt P29319); assay: ELISA, receptor coated on the plate, purified IgG, anti-human kappa-HRP
T3 sequence (receptor-Fc fusion, looked up): T2 sequence (receptor-Fc fusion, looked up)

hEphA1 (human) = target: T4, hEphA1 (human) (UniProt P21709); assay: as above
T4 sequence (receptor-Fc fusion, looked up): T1 sequence (receptor-Fc fusion, looked up)

mEphA7 (mouse) = mEphA7 (mouse) (UniProt Q61772); assay: as above
mEphA4 (mouse) = mEphA4 (mouse) (UniProt Q03137); assay: as above
mEphA2 (mouse) = mEphA2 (mouse) (UniProt Q03145); assay: as above
[14] = target: Human EphA4-His fusion protein (human) (UniProt P54764); assay: as above
[15] = target: Human EphA4-Fc fusion protein (human) (UniProt P54764); assay: BIAcore, IgG immobilized, human EphA4-Fc as analyte (FIG. 15)
r murine EphA7 (mouse) [16] = target: r murine EphA7 (mouse) (UniProt Q61772); assay: activity ELISA, IgG on coated antigen
r human EphA1 (human) [17] = target: T1, r human EphA1 (human); assay: activity ELISA, IgG on coated antigen
murine EphA2 (mouse) [18] = target: murine EphA2 (mouse) (UniProt Q03145); assay: activity ELISA, IgG on coated antigen
r murine EphA4 (mouse) [19] = target: r murine EphA4 (mouse) (UniProt Q03137); assay: activity ELISA, IgG on coated antigen
r murine EphA3 (mouse) [20] = target: T2, r murine EphA3 (mouse); assay: activity ELISA, IgG on coated antigen
[21] = target: Human EphA4-His fusion protein (human) (UniProt P54764); assay: activity ELISA, IgG on 0.5 ug/ml human EphA4
rmEph B4 (mouse) = target: T5, rmEph B4 (mouse) (UniProt P54761); assay: ELISA
T5 sequence (receptor, looked up): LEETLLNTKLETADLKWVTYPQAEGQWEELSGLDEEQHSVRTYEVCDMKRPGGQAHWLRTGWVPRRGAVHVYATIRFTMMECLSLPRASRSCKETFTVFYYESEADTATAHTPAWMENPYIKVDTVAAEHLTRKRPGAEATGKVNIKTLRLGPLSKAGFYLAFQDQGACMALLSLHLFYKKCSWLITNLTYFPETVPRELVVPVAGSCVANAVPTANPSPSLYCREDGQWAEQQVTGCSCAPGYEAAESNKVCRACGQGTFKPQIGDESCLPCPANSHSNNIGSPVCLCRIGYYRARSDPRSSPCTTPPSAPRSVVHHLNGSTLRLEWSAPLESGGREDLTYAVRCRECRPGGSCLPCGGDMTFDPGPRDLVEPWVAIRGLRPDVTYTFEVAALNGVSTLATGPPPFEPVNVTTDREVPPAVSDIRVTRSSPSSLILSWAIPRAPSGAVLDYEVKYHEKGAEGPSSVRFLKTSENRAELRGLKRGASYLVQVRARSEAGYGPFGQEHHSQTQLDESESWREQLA

rmEph B6 (mouse) = target: T6, rmEph B6 (mouse) (UniProt O08644); assay: ELISA
T6 sequence (receptor, looked up): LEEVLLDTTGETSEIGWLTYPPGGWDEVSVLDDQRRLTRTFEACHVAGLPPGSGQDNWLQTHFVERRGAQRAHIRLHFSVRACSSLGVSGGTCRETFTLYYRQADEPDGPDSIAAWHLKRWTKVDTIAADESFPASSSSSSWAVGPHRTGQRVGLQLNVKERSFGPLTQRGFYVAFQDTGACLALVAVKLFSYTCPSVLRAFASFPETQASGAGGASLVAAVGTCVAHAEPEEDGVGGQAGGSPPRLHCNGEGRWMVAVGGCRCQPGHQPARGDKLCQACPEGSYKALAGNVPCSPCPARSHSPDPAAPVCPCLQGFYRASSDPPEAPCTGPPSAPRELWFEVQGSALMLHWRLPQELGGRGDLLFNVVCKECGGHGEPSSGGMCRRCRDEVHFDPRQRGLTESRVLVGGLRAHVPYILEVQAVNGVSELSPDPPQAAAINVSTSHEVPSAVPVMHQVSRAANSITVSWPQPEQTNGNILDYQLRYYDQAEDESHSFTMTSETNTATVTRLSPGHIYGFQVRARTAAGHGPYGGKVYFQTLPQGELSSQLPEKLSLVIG

Measured: binding

B1: 10D11 (Fab, V domains shown)
VH: QVQLLQSGAEVKKPGASVKVPCKASGYTFTSYAMSWVRQAPGQGLEWMGWINTNTGNPTYAQGFTGRFVFSLDTSVSTAYLQISSLKAEDTAVYYCARVRLTVYGDGMDVWGQGTLVTVSS
VL: EIVLTQSPATLSVSPGERATLSCRASQSVSSNLAWYQQKPGQAPRLLIYGASTRATGIPDRFSASGSGTDFTLTISRVEPEDFAVYYCQQYGSSWTFGQGTKVEIK
binds: [1]

B2: 1A5 (Fab, V domains shown)
VH: B1 VH with L101T, V103P
VL: B1 VL
binds: [1]

B3: 2F1 (Fab, V domains shown)
VH: B1 VH with L101T, V103P
VL: B1 VL
binds: [1]

B4: 6F9 (Fab, V domains shown)
VH: B1 VH with L101T, V103P
VL: B1 VL
binds: [1]

B5: 2B5 (Fab, V domains shown)
VH: B1 VH with L101T, V103P
VL: B1 VL
binds: [1]

B6: 11G6 Fab (affinity optimized CDR3 heavy variant of Fab20) (Fab, V domains shown)
VH: B1 VH with L101F
VL: B1 VL
binds: [2] | [3] | [4]

B7: 8B4 Fab (affinity optimized combinatorial variant of Fab20) (Fab, V domains shown)
VH: B1 VH with Y32R
VL: B1 VL with L33P, A51L, S93P
binds: murine EphA2 (mouse) [5] | r murine EphA7 (mouse) [6] | r human EphA1 (human) [7] | murine EphA2 (mouse) [8] | r murine EphA4 (mouse) [9] | r murine EphA3 (mouse) [10] | [11] | [12]

B8: 8B4 IgG1 (affinity optimized combinatorial variant of mAb GEA44 in human IgG1 format) (antibody, V domains shown)
VH: B1 VH with Y32R
VL: B1 VL with L33P, A51L, S93P
binds: [13] | mEphA3 (mouse) | hEphA1 (human) | mEphA7 (mouse) | mEphA4 (mouse) | mEphA2 (mouse) | [14] | [15] | r murine EphA7 (mouse) [16] | r human EphA1 (human) [17] | murine EphA2 (mouse) [18] | r murine EphA4 (mouse) [19] | r murine EphA3 (mouse) [20] | [21]

B9: human Anti-Eph Monoclonal Antibody GEA44 (antibody, V domains shown)
VH: B1 VH with L101T
VL: B1 VL
no binding: rmEph B4 (mouse)

B10: GEA44 11H1 (antibody, V domains shown)
VH: B1 VH
VL: B1 VL
no binding: rmEph B6 (mouse) | rmEph B4 (mouse)
